Laboratory results reported in PMC11006493.
These are yes or no findings as the source states them, for the method shown. Binding seen in cells or lysates may run through a third protein. Some entries that bind do so weakly or less than the wild type. Tags and fused reporters may be left off the sequences shown.

Amino acid sequences for entries named in this document (tags omitted).
UniProt Q9HCE7: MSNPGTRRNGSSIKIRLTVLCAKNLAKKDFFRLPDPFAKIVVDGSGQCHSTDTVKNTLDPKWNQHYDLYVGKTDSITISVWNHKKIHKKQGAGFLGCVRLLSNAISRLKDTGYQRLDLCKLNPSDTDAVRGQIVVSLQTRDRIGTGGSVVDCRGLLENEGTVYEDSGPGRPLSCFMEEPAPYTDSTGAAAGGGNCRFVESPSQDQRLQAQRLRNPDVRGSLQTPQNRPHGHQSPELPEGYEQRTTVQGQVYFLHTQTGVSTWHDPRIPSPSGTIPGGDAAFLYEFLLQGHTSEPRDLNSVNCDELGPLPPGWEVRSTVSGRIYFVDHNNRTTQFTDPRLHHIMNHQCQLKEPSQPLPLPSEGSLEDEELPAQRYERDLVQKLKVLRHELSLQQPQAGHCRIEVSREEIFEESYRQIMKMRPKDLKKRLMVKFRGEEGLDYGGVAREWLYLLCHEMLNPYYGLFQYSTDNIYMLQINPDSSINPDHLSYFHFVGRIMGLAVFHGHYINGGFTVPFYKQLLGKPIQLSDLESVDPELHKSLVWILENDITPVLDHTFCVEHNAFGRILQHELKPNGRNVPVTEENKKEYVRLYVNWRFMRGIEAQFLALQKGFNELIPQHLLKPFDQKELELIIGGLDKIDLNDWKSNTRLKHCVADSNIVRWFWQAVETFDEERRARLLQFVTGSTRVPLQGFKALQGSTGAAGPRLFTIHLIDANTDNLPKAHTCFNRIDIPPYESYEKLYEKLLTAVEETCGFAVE

Target: T1, GSG2, Histone H3 associated protein kinase (Haspin) (human (endogenous in B-CPAP)) (UniProt Q8TF76)
T1 sequence: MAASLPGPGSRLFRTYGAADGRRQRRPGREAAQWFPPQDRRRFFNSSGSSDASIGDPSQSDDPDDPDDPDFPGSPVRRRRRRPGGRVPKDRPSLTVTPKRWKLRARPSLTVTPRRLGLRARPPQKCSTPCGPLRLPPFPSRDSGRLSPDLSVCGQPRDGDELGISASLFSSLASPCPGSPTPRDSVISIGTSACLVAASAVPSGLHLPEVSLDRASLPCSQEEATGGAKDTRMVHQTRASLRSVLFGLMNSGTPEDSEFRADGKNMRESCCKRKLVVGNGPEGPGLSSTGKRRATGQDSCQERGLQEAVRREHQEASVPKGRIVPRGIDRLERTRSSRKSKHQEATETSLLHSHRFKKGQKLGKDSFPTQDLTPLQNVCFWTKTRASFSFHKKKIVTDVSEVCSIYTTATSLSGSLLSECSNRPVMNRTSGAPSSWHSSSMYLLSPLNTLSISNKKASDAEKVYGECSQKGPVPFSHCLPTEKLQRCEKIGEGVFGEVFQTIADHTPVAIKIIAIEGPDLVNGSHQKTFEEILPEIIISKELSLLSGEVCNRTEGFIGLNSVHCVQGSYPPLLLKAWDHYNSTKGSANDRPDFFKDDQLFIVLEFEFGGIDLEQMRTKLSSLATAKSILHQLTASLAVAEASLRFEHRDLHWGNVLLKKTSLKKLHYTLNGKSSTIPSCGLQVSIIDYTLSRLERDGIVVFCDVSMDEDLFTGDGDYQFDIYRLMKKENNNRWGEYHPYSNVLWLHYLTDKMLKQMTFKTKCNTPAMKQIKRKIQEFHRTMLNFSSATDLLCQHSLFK
Test: co-IP; proteins from B-CPAP cells immunoprecipitated with GSG2 and IgG antibodies; immunoblot with antibodies to GSG2 and SMURF1; endogenous proteins

binding: binds
Substance: SMURF1 (from UniProt Q9HCE7 1-757)
